Experimental data taken from the supplement of paper PMC10849652.
The list shows a part of the results.

Protein sequences, listed by entry. Tags and fused reporters are not part of them. Lines headed by an entry give the natural chain unless they say otherwise; changes in a name come on top.
UniProt Q9Y680: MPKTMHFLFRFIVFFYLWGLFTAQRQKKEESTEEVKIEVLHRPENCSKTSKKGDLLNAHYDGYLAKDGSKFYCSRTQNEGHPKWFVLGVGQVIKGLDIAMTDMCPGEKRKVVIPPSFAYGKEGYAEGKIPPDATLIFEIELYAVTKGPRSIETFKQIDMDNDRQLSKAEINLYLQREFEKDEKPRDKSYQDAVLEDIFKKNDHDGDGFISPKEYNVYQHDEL
UniProt Q5HYJ3: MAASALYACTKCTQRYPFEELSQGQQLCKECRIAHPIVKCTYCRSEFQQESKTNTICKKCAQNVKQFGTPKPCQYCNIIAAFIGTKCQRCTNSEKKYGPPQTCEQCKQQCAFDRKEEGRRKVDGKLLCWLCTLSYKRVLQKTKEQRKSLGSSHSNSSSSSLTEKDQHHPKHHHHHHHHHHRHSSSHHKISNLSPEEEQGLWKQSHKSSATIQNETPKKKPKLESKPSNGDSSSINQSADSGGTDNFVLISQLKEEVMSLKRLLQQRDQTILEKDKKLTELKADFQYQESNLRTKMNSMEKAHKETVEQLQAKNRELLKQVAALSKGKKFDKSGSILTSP
UniProt Q658Y4: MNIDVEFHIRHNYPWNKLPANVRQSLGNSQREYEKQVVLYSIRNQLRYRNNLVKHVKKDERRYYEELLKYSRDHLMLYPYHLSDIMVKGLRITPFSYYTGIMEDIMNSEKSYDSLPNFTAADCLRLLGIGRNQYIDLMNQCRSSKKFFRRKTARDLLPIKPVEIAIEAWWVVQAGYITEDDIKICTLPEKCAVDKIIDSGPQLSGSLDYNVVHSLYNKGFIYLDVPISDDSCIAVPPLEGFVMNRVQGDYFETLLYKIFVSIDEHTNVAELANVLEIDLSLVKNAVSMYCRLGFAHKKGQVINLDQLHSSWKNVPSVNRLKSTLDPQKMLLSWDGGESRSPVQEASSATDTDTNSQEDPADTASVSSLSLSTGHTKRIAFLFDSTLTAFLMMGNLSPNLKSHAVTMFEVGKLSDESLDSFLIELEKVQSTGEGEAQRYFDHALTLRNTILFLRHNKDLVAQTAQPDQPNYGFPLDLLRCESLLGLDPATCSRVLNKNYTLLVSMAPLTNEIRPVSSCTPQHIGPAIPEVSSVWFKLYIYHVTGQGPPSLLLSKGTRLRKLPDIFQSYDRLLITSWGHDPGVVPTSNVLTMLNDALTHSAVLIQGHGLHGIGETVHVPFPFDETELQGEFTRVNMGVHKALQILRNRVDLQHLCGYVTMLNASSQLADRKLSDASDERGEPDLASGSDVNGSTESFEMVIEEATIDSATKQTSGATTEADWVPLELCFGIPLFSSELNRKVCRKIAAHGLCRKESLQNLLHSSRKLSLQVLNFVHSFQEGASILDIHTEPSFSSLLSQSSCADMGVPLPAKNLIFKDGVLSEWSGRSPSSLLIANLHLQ
UniProt Q9Y3I1: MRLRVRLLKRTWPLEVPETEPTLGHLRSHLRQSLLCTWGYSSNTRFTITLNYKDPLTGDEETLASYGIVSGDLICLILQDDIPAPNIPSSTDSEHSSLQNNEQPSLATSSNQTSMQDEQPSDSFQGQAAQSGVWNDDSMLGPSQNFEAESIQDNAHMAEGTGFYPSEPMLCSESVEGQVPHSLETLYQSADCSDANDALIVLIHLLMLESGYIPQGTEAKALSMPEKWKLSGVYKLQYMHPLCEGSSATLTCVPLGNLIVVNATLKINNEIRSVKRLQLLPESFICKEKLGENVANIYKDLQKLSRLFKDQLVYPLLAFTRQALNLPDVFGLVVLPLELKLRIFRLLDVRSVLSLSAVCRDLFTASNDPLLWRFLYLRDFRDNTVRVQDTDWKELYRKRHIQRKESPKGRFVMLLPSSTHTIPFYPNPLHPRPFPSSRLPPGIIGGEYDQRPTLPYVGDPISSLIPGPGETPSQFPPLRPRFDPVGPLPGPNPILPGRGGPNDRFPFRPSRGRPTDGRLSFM
UniProt Q6P4F2: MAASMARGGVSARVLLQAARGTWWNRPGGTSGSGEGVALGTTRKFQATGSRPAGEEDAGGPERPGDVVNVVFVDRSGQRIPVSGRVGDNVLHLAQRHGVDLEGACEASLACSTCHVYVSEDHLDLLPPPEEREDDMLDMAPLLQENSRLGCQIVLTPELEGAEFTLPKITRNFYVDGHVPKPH
UniProt Q9UIM3: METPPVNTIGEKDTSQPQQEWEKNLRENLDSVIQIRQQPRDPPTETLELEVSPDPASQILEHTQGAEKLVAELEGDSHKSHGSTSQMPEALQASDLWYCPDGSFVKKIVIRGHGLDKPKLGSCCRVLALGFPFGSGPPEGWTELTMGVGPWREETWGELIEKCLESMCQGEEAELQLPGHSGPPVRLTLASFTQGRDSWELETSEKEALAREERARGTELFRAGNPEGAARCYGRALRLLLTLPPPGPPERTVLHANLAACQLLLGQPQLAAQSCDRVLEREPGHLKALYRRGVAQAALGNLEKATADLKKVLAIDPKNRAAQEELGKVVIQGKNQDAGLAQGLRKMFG
UniProt O95363: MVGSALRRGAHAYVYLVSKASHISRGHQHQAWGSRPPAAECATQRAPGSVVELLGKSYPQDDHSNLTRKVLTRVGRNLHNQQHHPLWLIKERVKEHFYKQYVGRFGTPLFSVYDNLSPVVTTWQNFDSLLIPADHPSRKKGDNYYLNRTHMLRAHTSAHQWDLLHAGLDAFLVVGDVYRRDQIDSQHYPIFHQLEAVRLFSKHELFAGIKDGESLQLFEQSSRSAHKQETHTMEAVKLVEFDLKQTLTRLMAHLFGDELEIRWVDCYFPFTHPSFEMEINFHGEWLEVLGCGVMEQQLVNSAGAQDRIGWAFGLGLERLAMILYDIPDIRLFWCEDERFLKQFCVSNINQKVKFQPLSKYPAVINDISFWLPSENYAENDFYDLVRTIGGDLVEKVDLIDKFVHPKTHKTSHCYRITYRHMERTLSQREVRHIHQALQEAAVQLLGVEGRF
UniProt Q14192: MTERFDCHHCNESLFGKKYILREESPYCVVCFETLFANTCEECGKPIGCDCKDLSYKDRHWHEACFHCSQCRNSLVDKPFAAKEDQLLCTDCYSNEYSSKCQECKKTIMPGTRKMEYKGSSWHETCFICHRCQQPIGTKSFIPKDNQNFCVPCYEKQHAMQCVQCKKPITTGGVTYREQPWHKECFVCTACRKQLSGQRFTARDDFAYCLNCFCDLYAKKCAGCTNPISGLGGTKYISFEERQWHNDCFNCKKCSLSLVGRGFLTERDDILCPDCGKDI
UniProt P22830: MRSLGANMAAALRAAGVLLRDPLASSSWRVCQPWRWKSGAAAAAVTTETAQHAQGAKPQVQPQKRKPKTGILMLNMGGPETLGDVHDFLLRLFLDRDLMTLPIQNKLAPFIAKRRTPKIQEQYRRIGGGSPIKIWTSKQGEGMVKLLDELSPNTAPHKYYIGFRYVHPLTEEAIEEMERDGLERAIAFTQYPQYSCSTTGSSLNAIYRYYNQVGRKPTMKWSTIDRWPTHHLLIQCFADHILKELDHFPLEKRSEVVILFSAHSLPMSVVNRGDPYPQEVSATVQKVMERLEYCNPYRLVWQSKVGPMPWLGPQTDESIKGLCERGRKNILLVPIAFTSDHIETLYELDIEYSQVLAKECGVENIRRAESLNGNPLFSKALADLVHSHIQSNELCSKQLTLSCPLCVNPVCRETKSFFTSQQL
UniProt Q14320: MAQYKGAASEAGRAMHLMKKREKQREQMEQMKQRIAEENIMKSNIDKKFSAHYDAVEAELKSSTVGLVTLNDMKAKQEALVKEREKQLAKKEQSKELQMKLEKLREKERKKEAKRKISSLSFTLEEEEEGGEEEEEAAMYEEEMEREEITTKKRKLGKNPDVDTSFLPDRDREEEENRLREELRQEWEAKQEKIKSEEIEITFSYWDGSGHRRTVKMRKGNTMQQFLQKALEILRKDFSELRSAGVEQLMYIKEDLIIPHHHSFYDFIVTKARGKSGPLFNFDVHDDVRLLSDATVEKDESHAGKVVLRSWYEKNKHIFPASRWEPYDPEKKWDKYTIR
UniProt P22087: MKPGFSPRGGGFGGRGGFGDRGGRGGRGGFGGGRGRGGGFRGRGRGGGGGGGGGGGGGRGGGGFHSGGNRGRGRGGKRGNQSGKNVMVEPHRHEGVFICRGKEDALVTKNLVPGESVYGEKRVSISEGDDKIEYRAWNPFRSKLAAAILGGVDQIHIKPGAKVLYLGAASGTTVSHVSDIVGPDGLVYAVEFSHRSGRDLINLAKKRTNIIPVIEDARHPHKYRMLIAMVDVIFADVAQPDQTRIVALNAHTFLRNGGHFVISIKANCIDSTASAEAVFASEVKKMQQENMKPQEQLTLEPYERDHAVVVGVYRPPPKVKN
UniProt Q9UBU6: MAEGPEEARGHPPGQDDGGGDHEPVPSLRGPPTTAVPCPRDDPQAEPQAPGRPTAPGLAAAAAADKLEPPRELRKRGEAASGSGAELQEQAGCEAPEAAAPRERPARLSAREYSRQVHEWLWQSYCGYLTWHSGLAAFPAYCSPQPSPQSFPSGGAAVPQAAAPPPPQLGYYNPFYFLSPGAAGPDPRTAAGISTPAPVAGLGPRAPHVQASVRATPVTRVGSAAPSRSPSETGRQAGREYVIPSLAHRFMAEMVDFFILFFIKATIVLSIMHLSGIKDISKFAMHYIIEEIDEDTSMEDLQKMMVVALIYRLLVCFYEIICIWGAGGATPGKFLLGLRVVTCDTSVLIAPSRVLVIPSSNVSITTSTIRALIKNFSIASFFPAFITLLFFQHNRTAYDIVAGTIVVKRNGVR
UniProt Q9NWM8: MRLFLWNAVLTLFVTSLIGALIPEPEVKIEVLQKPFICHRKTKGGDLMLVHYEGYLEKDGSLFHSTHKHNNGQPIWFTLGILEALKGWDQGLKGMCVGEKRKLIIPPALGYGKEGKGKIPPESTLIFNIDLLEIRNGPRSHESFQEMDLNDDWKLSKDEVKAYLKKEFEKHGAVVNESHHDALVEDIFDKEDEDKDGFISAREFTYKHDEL
UniProt Q9NRD1: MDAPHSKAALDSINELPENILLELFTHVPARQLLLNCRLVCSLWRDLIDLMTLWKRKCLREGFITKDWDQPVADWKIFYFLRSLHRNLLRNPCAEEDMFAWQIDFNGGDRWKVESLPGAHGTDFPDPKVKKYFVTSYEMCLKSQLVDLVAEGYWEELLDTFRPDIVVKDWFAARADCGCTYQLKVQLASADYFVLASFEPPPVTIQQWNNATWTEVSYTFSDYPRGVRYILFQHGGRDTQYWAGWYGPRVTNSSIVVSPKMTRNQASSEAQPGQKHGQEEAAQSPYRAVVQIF
UniProt Q9Y421: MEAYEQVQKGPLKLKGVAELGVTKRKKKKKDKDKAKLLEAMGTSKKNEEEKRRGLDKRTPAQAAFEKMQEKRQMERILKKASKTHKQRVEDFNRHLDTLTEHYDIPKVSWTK
UniProt Q52LJ0: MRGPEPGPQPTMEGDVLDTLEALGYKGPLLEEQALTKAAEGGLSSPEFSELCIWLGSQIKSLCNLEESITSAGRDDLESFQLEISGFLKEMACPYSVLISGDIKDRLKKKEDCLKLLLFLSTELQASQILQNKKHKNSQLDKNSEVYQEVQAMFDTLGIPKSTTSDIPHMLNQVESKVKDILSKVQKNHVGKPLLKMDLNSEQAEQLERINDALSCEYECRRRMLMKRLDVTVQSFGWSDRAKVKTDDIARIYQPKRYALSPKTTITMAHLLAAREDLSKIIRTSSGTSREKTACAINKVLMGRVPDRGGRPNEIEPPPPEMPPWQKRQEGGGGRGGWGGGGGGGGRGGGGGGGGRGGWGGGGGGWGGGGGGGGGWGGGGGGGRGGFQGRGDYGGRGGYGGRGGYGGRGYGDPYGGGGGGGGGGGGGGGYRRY
UniProt Q9NSD9: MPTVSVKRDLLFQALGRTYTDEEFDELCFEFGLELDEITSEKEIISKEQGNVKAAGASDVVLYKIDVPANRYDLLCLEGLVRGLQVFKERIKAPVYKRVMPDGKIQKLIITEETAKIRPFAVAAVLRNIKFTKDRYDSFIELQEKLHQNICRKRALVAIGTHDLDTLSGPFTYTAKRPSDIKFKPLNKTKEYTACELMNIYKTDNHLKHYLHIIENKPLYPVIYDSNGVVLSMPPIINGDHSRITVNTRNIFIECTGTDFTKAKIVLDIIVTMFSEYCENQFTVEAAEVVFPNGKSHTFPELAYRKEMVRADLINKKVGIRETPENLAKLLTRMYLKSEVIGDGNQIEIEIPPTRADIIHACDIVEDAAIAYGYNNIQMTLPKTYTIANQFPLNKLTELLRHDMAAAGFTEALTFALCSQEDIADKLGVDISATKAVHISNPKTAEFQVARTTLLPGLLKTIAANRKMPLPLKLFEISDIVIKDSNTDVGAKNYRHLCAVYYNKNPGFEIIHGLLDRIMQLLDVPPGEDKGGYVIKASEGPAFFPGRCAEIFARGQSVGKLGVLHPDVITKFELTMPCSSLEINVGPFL
UniProt Q92520: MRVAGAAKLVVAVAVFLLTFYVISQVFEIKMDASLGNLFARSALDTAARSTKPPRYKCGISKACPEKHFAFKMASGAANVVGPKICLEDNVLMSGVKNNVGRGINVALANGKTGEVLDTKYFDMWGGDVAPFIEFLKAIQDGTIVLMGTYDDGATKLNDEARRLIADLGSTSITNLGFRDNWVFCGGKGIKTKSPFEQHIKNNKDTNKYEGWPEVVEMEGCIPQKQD

compound: O=C(CCCCCCNC(=O)c1cnc(N(c2ccccc2)c2ccccc2Cl)nc1)NO [citarinostat]; test: log2 fold change, soluble protein after heating vs DMSO (PISA); higher = thermal stabilisation; K562 cells, 10 uM, 30 min; active = over 0.2 and 3.5 SD of the protein, either way, in both replicates (recomputed)
In short: (§1)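 Quantification of soluble protein used TMTpro 16plex LC-MS/MS, with channel sums equalised. Samples were the supernatant after 21,000xg for 90 min of pooled aliquots from K562 cells (2×10^6 cells/mL) treated with 10 μM compound for 30 min, heated for 3 min over 48°C-58°C, and extracted in PBS with 0.5% NP-40 at 4°C. Values, from duplicates, describe thermal stability against control samples on a log2 fold-change scale.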

log2 fold change, inactive:
FBXO5 (UniProt Q9UKT4) 0.059
FEM1B (UniProt Q9UK73) 0.017
FKBP7 (UniProt Q9Y680) -0.02
FAM76B (UniProt Q5HYJ3) 0.004
FIP1L1 (UniProt Q6UN15) -0.001
FBXO22 (UniProt Q8NEZ5) 0.083
FAM91A1 (UniProt Q658Y4) -0.003
FKBP15 (UniProt Q5T1M5) 0.027
FKBP3 (UniProt Q00688) 0.009
FBXO7 (UniProt Q9Y3I1) 0.013
FDX2 (UniProt Q6P4F2) -0.047
FDFT1 (UniProt P37268) 0.086
FBXL20 (UniProt Q96IG2) -0.012
FKBPL (UniProt Q9UIM3) 0.037
FARS2 (UniProt O95363) 0.022
FBXO30 (UniProt Q8TB52) 0.069
FHL2 (UniProt Q14192) -0.013
FECH isoform 2 (UniProt P22830) -0.031
FAM50A (UniProt Q14320) 0.095
FBL (UniProt P22087) -0.109
FBLL1 (UniProt A6NHQ2) -0.167
FBXO3 (UniProt Q9UK99) 0.016
FN3KRP (UniProt Q9HA64) 0.003
FLVCR1 (UniProt Q9Y5Y0) -0.041
FAM8A1 (UniProt Q9UBU6) -0.004
FGFR1OP (UniProt O95684) -0.041
FKBP14 (UniProt Q9NWM8) -0.021
FGF13 isoform 3 (UniProt Q92913) -0.08
FBXO6 (UniProt Q9NRD1) 0.075
FKBP2 (UniProt P26885) -0.005
FAM32A (UniProt Q9Y421) -0.034
FDPS (UniProt P14324) 0.142
FNBP4 isoform 2 (UniProt Q8N3X1) 0.004
FAM98B (UniProt Q52LJ0) -0.024
FARSB (UniProt Q9NSD9) 0.031
FAM98A (UniProt Q8NCA5) -0.033
FAU (UniProt P62861) -0.176
FIS1 (UniProt Q9Y3D6) 0.051
FAM3C (UniProt Q92520) 0.037

compound: O=C(O)c1ccc2c(c1)nc(Nc1cccc(Cl)c1)c1ccncc12 [silmitasertib]; test: as above
In short: as §1

log2 fold change, inactive:
FBXO5 (UniProt Q9UKT4) 0.101
FEM1B (UniProt Q9UK73) 0.011
FKBP7 (UniProt Q9Y680) 0.079
FAM76B (UniProt Q5HYJ3) -0.084
FIP1L1 (UniProt Q6UN15) -0.032
FBXO22 (UniProt Q8NEZ5) -0.025
FAM91A1 (UniProt Q658Y4) 0.073
FKBP15 (UniProt Q5T1M5) 0.071
FKBP3 (UniProt Q00688) -0.034
FBXO7 (UniProt Q9Y3I1) 0.031
FDX2 (UniProt Q6P4F2) 0.075
FDFT1 (UniProt P37268) -0.031
FBXL20 (UniProt Q96IG2) 0.005
FKBPL (UniProt Q9UIM3) -0.04
FARS2 (UniProt O95363) -0.027
FBXO30 (UniProt Q8TB52) 0.042
FHL2 (UniProt Q14192) 0.012
FECH isoform 2 (UniProt P22830) -0.035
FAM50A (UniProt Q14320) 0.071
FBL (UniProt P22087) 0.232
FBLL1 (UniProt A6NHQ2) 0.121
FBXO3 (UniProt Q9UK99) -0.003
FN3KRP (UniProt Q9HA64) -0.044
FLVCR1 (UniProt Q9Y5Y0) 0.025
FAM8A1 (UniProt Q9UBU6) -0.034
FGFR1OP (UniProt O95684) 0.016
FKBP14 (UniProt Q9NWM8) -0.003
FGF13 isoform 3 (UniProt Q92913) 0.019
FBXO6 (UniProt Q9NRD1) 0.012
FKBP2 (UniProt P26885) 0.014
FAM32A (UniProt Q9Y421) 0.048
FDPS (UniProt P14324) -0.108
FNBP4 isoform 2 (UniProt Q8N3X1) -0.038
FAM98B (UniProt Q52LJ0) 0.075
FARSB (UniProt Q9NSD9) 0.01
FAM98A (UniProt Q8NCA5) 0.06
FAU (UniProt P62861) 0.111
FIS1 (UniProt Q9Y3D6) -0.017
FAM3C (UniProt Q92520) 0.03
